Some of the results follow.
Experiments:
Test in all cases: glycan array binding signal (z-score within array); higher = stronger binding
Conditions in all cases: glycan notation: IUPAC condensed, linker removed
[1] = target: Gal(b1-4)GlcNAc(b1-2)[Gal(b1-4)GlcNAc(b1-6)]Man(a1-6)[GlcNAc(b1-4)][Gal(b1-4)GlcNAc(b1-2)Man(a1-3)]Man(b1-4)GlcNAc(b1-4)GlcNAc
Summary of the method: (§1)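 Negative Z-scores can be read as non-binding. The Z-score is calculated within each array and then averaged across arrays of one protein sequence at different concentrations or buffers and across linkers. Arrays, 3228 in all, were curated from the Consortium for Functional Glycomics database and kept only where the protein sequence was available.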

[2] = target: Gal(b1-4)GlcNAc(b1-2)[Gal(b1-4)GlcNAc(b1-6)]Man(a1-6)[GlcNAc(b1-4)][Gal(b1-4)GlcNAc(b1-2)[Gal(b1-4)GlcNAc(b1-4)]Man(a1-3)]Man(b1-4)GlcNAc(b1-4)[Fuc(a1-6)]GlcNAc
Summary of the method: as §1

[3] = target: Gal(b1-4)GlcNAc(b1-3)Gal(b1-3)GalNAc
Summary of the method: as §1

[4] = target: Gal(b1-4)GlcNAc(b1-3)Gal(b1-3)GlcNAc
Summary of the method: as §1

[5] = target: Gal(b1-4)GlcNAc(b1-3)Gal(b1-4)Glc
Summary of the method: as §1

[6] = target: Gal(b1-4)GlcNAc(b1-3)Gal(b1-4)GlcNAc
Summary of the method: as §1

[7] = target: Gal(b1-4)GlcNAc(b1-3)Gal(b1-4)GlcNAc(b1-2)Man(a1-3)[Gal(b1-4)GlcNAc(b1-3)Gal(b1-4)GlcNAc(b1-2)Man(a1-6)]Man(b1-4)GlcNAc(b1-4)GlcNAc
Summary of the method: as §1

[8] = target: Gal(b1-4)GlcNAc(b1-3)Gal(b1-4)GlcNAc(b1-2)Man(a1-3)[Gal(b1-4)GlcNAc(b1-3)Gal(b1-4)GlcNAc(b1-2)Man(a1-6)]Man(b1-4)GlcNAc(b1-4)[Fuc(a1-6)]GlcNAc
Summary of the method: as §1

[9] = target: Gal(b1-4)GlcNAc(b1-3)Gal(b1-4)GlcNAc(b1-2)[Gal(b1-4)GlcNAc(b1-3)Gal(b1-4)GlcNAc(b1-6)]Man(a1-6)[Gal(b1-4)GlcNAc(b1-3)Gal(b1-4)GlcNAc(b1-2)Man(a1-3)]Man(b1-4)GlcNAc(b1-4)GlcNAc
Summary of the method: as §1

[10] = target: Gal(b1-4)GlcNAc(b1-3)Gal(b1-4)GlcNAc(b1-2)[Gal(b1-4)GlcNAc(b1-3)Gal(b1-4)GlcNAc(b1-6)]Man(a1-6)[Gal(b1-4)GlcNAc(b1-3)Gal(b1-4)GlcNAc(b1-2)Man(a1-3)]Man(b1-4)GlcNAc(b1-4)[Fuc(a1-6)]GlcNAc
Summary of the method: as §1

[11] = target: Gal(b1-4)GlcNAc(b1-3)Gal(b1-4)GlcNAc(b1-3)Gal(b1-4)GlcNAc
Summary of the method: as §1

[12] = target: Gal(b1-4)GlcNAc(b1-3)Gal(b1-4)GlcNAc(b1-3)Gal(b1-4)GlcNAc(b1-2)Man(a1-3)[Gal(b1-4)GlcNAc(b1-3)Gal(b1-4)GlcNAc(b1-3)Gal(b1-4)GlcNAc(b1-2)Man(a1-6)]Man(b1-4)GlcNAc(b1-4)GlcNAc
Summary of the method: as §1

[13] = target: Gal(b1-4)GlcNAc(b1-3)Gal(b1-4)GlcNAc(b1-3)Gal(b1-4)GlcNAc(b1-2)Man(a1-3)[Gal(b1-4)GlcNAc(b1-3)Gal(b1-4)GlcNAc(b1-3)Gal(b1-4)GlcNAc(b1-2)Man(a1-6)]Man(b1-4)GlcNAc(b1-4)[Fuc(a1-6)]GlcNAc
Summary of the method: as §1

[14] = target: Gal(b1-4)GlcNAc(b1-3)Gal(b1-4)GlcNAc(b1-3)Gal(b1-4)GlcNAc(b1-2)[Gal(b1-4)GlcNAc(b1-3)Gal(b1-4)GlcNAc(b1-3)Gal(b1-4)GlcNAc(b1-6)]Man(a1-6)[Gal(b1-4)GlcNAc(b1-3)Gal(b1-4)GlcNAc(b1-3)Gal(b1-4)GlcNAc(b1-2)Man(a1-3)]Man(b1-4)GlcNAc(b1-4)[Fuc(a1-6)]GlcNAc
Summary of the method: as §1

[15] = target: Gal(b1-4)GlcNAc(b1-3)Gal(b1-4)GlcNAc(b1-3)Gal(b1-4)GlcNAc(b1-3)Gal(b1-4)GlcNAc(b1-2)Man(a1-3)[Gal(b1-4)GlcNAc(b1-3)Gal(b1-4)GlcNAc(b1-3)Gal(b1-4)GlcNAc(b1-3)Gal(b1-4)GlcNAc(b1-2)Man(a1-6)]Man(b1-4)GlcNAc(b1-4)GlcNAc
Summary of the method: as §1

[16] = target: Gal(b1-4)GlcNAc(b1-3)Gal(b1-4)GlcNAc(b1-3)Gal(b1-4)GlcNAc(b1-3)Gal(b1-4)GlcNAc(b1-2)Man(a1-3)[Gal(b1-4)GlcNAc(b1-3)Gal(b1-4)GlcNAc(b1-3)Gal(b1-4)GlcNAc(b1-3)Gal(b1-4)GlcNAc(b1-2)Man(a1-6)]Man(b1-4)GlcNAc(b1-4)[Fuc(a1-6)]GlcNAc
Summary of the method: as §1

[17] = target: Gal(b1-4)GlcNAc(b1-3)Gal(b1-4)GlcNAc(b1-3)Gal(b1-4)GlcNAc(b1-3)Gal(b1-4)GlcNAc(b1-2)[Gal(b1-4)GlcNAc(b1-3)Gal(b1-4)GlcNAc(b1-3)Gal(b1-4)GlcNAc(b1-3)Gal(b1-4)GlcNAc(b1-6)]Man(a1-6)[Gal(b1-4)GlcNAc(b1-3)Gal(b1-4)GlcNAc(b1-3)Gal(b1-4)GlcNAc(b1-3)Gal(b1-4)GlcNAc(b1-2)Man(a1-3)]Man(b1-4)GlcNAc(b1-4)[Fuc(a1-6)]GlcNAc
Summary of the method: as §1

[18] = target: Gal(b1-4)GlcNAc(b1-3)Gal(b1-4)GlcNAc(b1-3)Gal(b1-4)GlcNAc(b1-3)Gal(b1-4)GlcNAc(b1-3)Gal(b1-4)GlcNAc(b1-2)Man(a1-3)[Gal(b1-4)GlcNAc(b1-3)Gal(b1-4)GlcNAc(b1-3)Gal(b1-4)GlcNAc(b1-3)Gal(b1-4)GlcNAc(b1-3)Gal(b1-4)GlcNAc(b1-2)Man(a1-6)]Man(b1-4)GlcNAc(b1-4)GlcNAc
Summary of the method: as §1

[19] = target: Gal(b1-4)GlcNAc(b1-3)Gal(b1-4)GlcNAc(b1-3)Gal(b1-4)GlcNAc(b1-3)Gal(b1-4)GlcNAc(b1-3)Gal(b1-4)GlcNAc(b1-2)Man(a1-3)[Gal(b1-4)GlcNAc(b1-3)Gal(b1-4)GlcNAc(b1-3)Gal(b1-4)GlcNAc(b1-3)Gal(b1-4)GlcNAc(b1-3)Gal(b1-4)GlcNAc(b1-2)Man(a1-6)]Man(b1-4)GlcNAc(b1-4)[Fuc(a1-6)]GlcNAc
Summary of the method: as §1

[20] = target: Gal(b1-4)GlcNAc(b1-3)Gal(b1-4)GlcNAc(b1-3)Gal(b1-4)GlcNAc(b1-3)Gal(b1-4)GlcNAc(b1-3)Gal(b1-4)GlcNAc(b1-2)[Gal(b1-4)GlcNAc(b1-3)Gal(b1-4)GlcNAc(b1-3)Gal(b1-4)GlcNAc(b1-3)Gal(b1-4)GlcNAc(b1-3)Gal(b1-4)GlcNAc(b1-6)]Man(a1-6)[Gal(b1-4)GlcNAc(b1-3)Gal(b1-4)GlcNAc(b1-3)Gal(b1-4)GlcNAc(b1-3)Gal(b1-4)GlcNAc(b1-3)Gal(b1-4)GlcNAc(b1-2)Man(a1-3)]Man(b1-4)GlcNAc(b1-4)[Fuc(a1-6)]GlcNAc
Summary of the method: as §1

[21] = target: Gal(b1-4)GlcNAc(b1-3)Gal(b1-4)GlcNAc(b1-3)Gal(b1-4)GlcNAc(b1-3)Gal(b1-4)GlcNAc(b1-3)Gal(b1-4)GlcNAc(b1-3)Gal(b1-4)GlcNAc(b1-2)Man(a1-3)[Gal(b1-4)GlcNAc(b1-3)Gal(b1-4)GlcNAc(b1-3)Gal(b1-4)GlcNAc(b1-3)Gal(b1-4)GlcNAc(b1-3)Gal(b1-4)GlcNAc(b1-3)Gal(b1-4)GlcNAc(b1-2)Man(a1-6)]Man(b1-4)GlcNAc(b1-4)GlcNAc
Summary of the method: as §1

[22] = target: Gal(b1-4)GlcNAc(b1-3)Gal(b1-4)GlcNAc(b1-3)GalNAc
Summary of the method: as §1

[23] = target: Gal(b1-4)GlcNAc(b1-3)Gal(b1-4)GlcNAc(b1-3)[Gal(b1-4)GlcNAc(b1-3)Gal(b1-4)GlcNAc(b1-6)]GalNAc
Summary of the method: as §1

[24] = target: Gal(b1-4)GlcNAc(b1-3)Gal(b1-4)GlcNAc(b1-6)[Gal(b1-3)]GalNAc
Summary of the method: as §1

[25] = target: Gal(b1-4)GlcNAc(b1-3)Gal(b1-4)[Fuc(a1-3)]GlcNAc(b1-3)Gal(b1-4)[Fuc(a1-3)]GlcNAc
Summary of the method: as §1

[26] = target: Gal(b1-4)GlcNAc(b1-3)GalNAc
Summary of the method: as §1

[27] = target: Gal(b1-4)GlcNAc(b1-3)[Fuc(a1-3)GlcNAc(b1-6)]Gal(b1-4)Glc
Summary of the method: as §1

[28] = target: Gal(b1-4)GlcNAc(b1-3)[Gal(b1-4)GlcNAc(b1-6)]Gal(b1-4)GlcNAc
Summary of the method: as §1

[29] = target: Gal(b1-4)GlcNAc(b1-3)[GlcNAc(b1-6)]Gal(b1-4)GlcNAc
Summary of the method: as §1

[30] = target: Gal(b1-4)GlcNAc(b1-6)Gal(b1-4)GlcNAc
Summary of the method: as §1

[31] = target: Gal(b1-4)GlcNAc(b1-6)GalNAc
Summary of the method: as §1

[32] = target: Gal(b1-4)GlcNAc(b1-6)[Gal(b1-3)]GalNAc
Summary of the method: as §1

[33] = target: Gal(b1-4)GlcNAc(b1-6)[Gal(b1-4)GlcNAc(b1-3)]GalNAc
Summary of the method: as §1

Gal(b1-4)GlcNAc6P = target: Gal(b1-4)GlcNAc6P
Summary of the method: as §1

Gal(b1-6)Gal = target: Gal(b1-6)Gal
Summary of the method: as §1

Gal3S(b1-3)GalNAc = target: Gal3S(b1-3)GalNAc
Summary of the method: as §1

Gal3S(b1-3)GlcNAc = target: Gal3S(b1-3)GlcNAc
Summary of the method: as §1

[34] = target: Gal3S(b1-3)[Fuc(a1-4)]GlcNAc
Summary of the method: as §1

B1: PX9937I-bfa-538-26-538 (Bacteroides fragilis) (protein)
chain: DKLDLSPIDYYGSGSYWKTEAQATAYIDGIHKHLRDAAWQHTITFGELRGGRFITGASSDGMGVSNGDIILQNFDETHTGVSKFGDLFGRITNLNLFIARVTDATYLSDEMKNFYLGEVYGLRAFYYFDLYRIYGGVPLRLTADVVEGVIDPNKLYMARSTPKEVMTQIKSDLNKSMEYFGNMNDFDPYKRGKKVYWSKAATECLMGEVYLWTSKVTTGDDVANPADLTIAKTHLESVLNNYNLKMLDDFSQVFNAKNKANDEIIFAIRFLEGEATNSNGTFTYNVGTGSTKNRYQANGEVFGDALDIQNTGNQTYEYNKAVYQNFDDADTRKEATFIASYNKDGKTGELSLYGTHVRKNIGYVNAQGARVYCGDYIFYRLPWVYLTLAEIANMEGDNAAVAKYINLVRKRAYGNAWDETLYAYPETADFTTNELAILHEKDKEFIQEGQRWWDLRRMTLTKGGTPLVFCKEGSLLGDAPILNKSTEAHKLLWPIEKTMLNKDPALEQTPGYK
- glycan array binding signal (z-score) [1]: -0.361
- glycan array binding signal (z-score) [2]: -0.531
- glycan array binding signal (z-score) [3]: 0.655
- glycan array binding signal (z-score) [4]: -0.581
- glycan array binding signal (z-score) [5]: 0.127
- glycan array binding signal (z-score) [6]: 0.876
- glycan array binding signal (z-score) [7]: 0.473
- glycan array binding signal (z-score) [8]: 0.184
- glycan array binding signal (z-score) [9]: -0.325
- glycan array binding signal (z-score) [10]: 0.095
- glycan array binding signal (z-score) [11]: -0.221
- glycan array binding signal (z-score) [12]: 6.36
- glycan array binding signal (z-score) [13]: 1.65
- glycan array binding signal (z-score) [14]: 0.977
- glycan array binding signal (z-score) [15]: 1.43
- glycan array binding signal (z-score) [16]: 1.15
- glycan array binding signal (z-score) [17]: 0.599
- glycan array binding signal (z-score) [18]: 1.74
- glycan array binding signal (z-score) [19]: 0.304
- glycan array binding signal (z-score) [20]: 0.003
- glycan array binding signal (z-score) [21]: 1.09
- glycan array binding signal (z-score) [22]: -0.178
- glycan array binding signal (z-score) [23]: -0.161
- glycan array binding signal (z-score) [24]: 3.46
- glycan array binding signal (z-score) [25]: -1.27
- glycan array binding signal (z-score) [26]: -0.439
- glycan array binding signal (z-score) [27]: -0.333
- glycan array binding signal (z-score) [28]: -0.046
- glycan array binding signal (z-score) [29]: 0.803
- glycan array binding signal (z-score) [30]: 1.23
- glycan array binding signal (z-score) [31]: 1.25
- glycan array binding signal (z-score) [32]: -0.735
- glycan array binding signal (z-score) [33]: -0.941
- glycan array binding signal (z-score) (Gal(b1-4)GlcNAc6P): 1.44
- glycan array binding signal (z-score) (Gal(b1-6)Gal): 0.21
- glycan array binding signal (z-score) (Gal3S(b1-3)GalNAc): -0.819
- glycan array binding signal (z-score) (Gal3S(b1-3)GlcNAc): 0.712
- glycan array binding signal (z-score) [34]: 0.163

Reference: the supplement of paper PMC8728848
